Measurements taken from US20220228203.
For at least one entry, the source does not settle the construct or the ends of the probe.

Amino acid sequences for entries named in this document (tags omitted). A change or cut given only in a name is not applied to a line headed by its entry.
UniProt Q46731: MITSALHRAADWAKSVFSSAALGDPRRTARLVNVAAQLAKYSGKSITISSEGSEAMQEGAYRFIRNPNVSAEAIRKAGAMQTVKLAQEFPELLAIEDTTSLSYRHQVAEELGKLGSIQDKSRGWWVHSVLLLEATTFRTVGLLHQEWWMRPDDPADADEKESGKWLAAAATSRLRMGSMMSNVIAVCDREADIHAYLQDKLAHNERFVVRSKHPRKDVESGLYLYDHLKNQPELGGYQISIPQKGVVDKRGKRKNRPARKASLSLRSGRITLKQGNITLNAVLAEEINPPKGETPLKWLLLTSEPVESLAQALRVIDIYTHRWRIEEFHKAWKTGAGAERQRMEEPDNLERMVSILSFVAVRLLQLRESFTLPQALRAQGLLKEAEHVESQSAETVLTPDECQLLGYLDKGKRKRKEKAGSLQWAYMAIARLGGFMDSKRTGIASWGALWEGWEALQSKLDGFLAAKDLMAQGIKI

Target: Protein A-Tn5 transposase fusion (pA-Tn5, hyperactive Tn5) (UniProt Q46731)
Assay: activity assay
Conditions: 5'-phosphate on mosaic end reverse; loaded transposome tagments chromatin in permeabilized K562 cells; Mg2+, 37 C; purified recombinant protein; protein details: Protein A fusion

Sequence	activity on this sequence
GTCTCGTGGGCTCGGAGATGTGTATAAGAGACAG / CTGTCTCTTATACACATCT [Mosaic end adapter B / mosaic end reverse]	active
TCGTCGGCAGCGTCAGATGTGTATAAGAGACAG / CTGTCTCTTATACACATCT [Mosaic end adapter A / mosaic end reverse]	active
